Reference: PubChem BioAssay AID1662 (Broad Institute, 2009)
About 4,000 (1.3%) of roughly 300,000 compounds were called active. The inconclusive results got no clear call from the source; some entries with a clear call stand among them for comparison.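 How the source made its calls: active means mean replicate score, as percent of positive control median, at least 50; inconclusive means mean below 50 but one replicate at or above 50; inactive means mean and every replicate below 50.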

Assay: kanamycin survival loss of SKKanGAS strain – BacTiter-Glo luminescence, streptokinase expression inhibitor project, primary screen (AID 1662);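 further: strain carries kanamycin resistance gene driven by streptokinase promoter and grows in 40 µg/ml kanamycin; loss of luminescence reflects streptokinase promoter inhibition or plain growth inhibition; 0% = median of DMSO wells and 100% = positive control at its reference dose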
Settings: S. pyogenes SKKanGAS, kanamycin growth, 6 h, at 7.5 µM, stronger effect = higher value
In the case of `CN(C)c1ccc(/C=C/c2ccc3ccccc3n2)cc1`, the inhibition is reported as active: 75.2%. In the case of `O=C(Nc1ccccc1N1CCN(C(=O)c2ccccc2)CC1)c1cc(Br)ccc1Cl`, the inhibition is reported as inconclusive: 48.9%. For `O=c1cc(C(F)(F)F)[nH]c2c(C(F)(F)F)cccc12`, the inhibition was inconclusive: 49.4%. For `COc1cc(C)ccc1OCCCOc1ccccc1Br`, the inhibition was inconclusive: 49.1%. For `CNc1nc(OC)nc(N(C#N)CN2C(=O)c3ccccc3S2(=O)=O)n1`, the inhibition was inconclusive: 26.9%. In the case of `CCCCCNC(=O)c1ccc2c(=O)[nH]c3c(C(=O)NCC4CCCO4)sc(=S)n3c2c1` (centres undefined), the inhibition is reported as inconclusive: 43.4%. With `O=C(Nc1nc(-c2ccccn2)cs1)c1ccc(S(=O)(=O)N2CCCCC2)cc1` the inhibition was active: 84.2%. For `CCC(CO)Nc1ncnc2c1cnn2-c1ccc(OC)cc1` (centres undefined), the inhibition was inconclusive: 27.4%. In the case of `O=C(Nc1ccccc1N1CCCC1)c1ccc2c(c1)OCO2`, the inhibition is reported as inconclusive: 47%. For `O=C(C1=C(O)C(=O)N(c2ccccc2)C1c1ccc([N+](=O)[O-])cc1)c1cccs1` (centres undefined), the inhibition was active: 59.4%. In the case of `COCC1CCCCN1C(=O)c1ccc2oc(CCCc3ccccc3)nc2c1` (centres undefined), the inhibition is reported as inconclusive: 38.9%. With `CCc1oc2ccccc2c1C(=O)c1cc(Br)c(O)c(Br)c1` the inhibition was active: 49.7%. With `O=C(NC(=S)Nc1cccc(Cl)c1N1CCCCC1)c1ccc2c(c1)OCCO2` the inhibition was active: 61%. With `CC1=Nc2ccccc2/C1=C\c1nc(-c2ccc(F)cc2)oc1O` the inhibition was active: 81.3%. With `CCOC(=O)c1cccc(OS(=O)(=O)Cc2ccccc2)c1` the inhibition was inactive: -3.61%. For `Cc1ccc(S(=O)(=O)NCC(=O)OCC(=O)N2N=C(c3ccc(Cl)cc3)CC2c2ccco2)cc1C` (centres undefined), the inhibition was active: 70.1%. For `CCOc1ccc2c(c1)c1nnc(SCC(=O)N3CCC(C)CC3)nc1n2C`, the inhibition was inconclusive: 33.8%. In the case of `Cn1c(O)c(N=Nc2nc(-c3ccccc3)cs2)c2ccccc21`, the inhibition is reported as inconclusive: 47.1%. For `Cc1oc(-c2ccc(C(F)(F)F)cc2)nc1CN(Cc1ccccn1)C[C@@H]1CCC(=O)N1`, the inhibition was inconclusive: 23%. In the case of `O=S(=O)(Nc1ncnc2sc3c(c12)CCC3)c1ccc(Cl)s1`, the inhibition is reported as inconclusive: 47.5%. For `Cc1cc(C(=O)N/N=C/c2cc([N+](=O)[O-])cc(C)c2O)n[nH]1`, the inhibition was inconclusive: 33.9%. With `N#C/C(=C(/O)COc1ccccc1)c1nc2ccccc2s1` the inhibition was inconclusive: 48.9%. For `Cc1ccc(CN(C(=O)c2ccco2)C2CCS(=O)(=O)C2)cc1` (centres undefined), the inhibition was inconclusive: 42.9%. In the case of `COC(=O)/C=C1\C(=O)N(c2nc3ccccc3s2)C(=S)N1c1ccc(F)cc1`, the inhibition is reported as inconclusive: 28.4%.
